In the test the target is Methionine adenosyltransferase α1 (MATα1), endogenous human (human (endogenous in human hepatocytes and liver)) (UniProt Q00266). The test can be described thus: co-IP; human normal liver lysates; IP with anti-MATα1 antibody, western blot against CPT1α, MCAD and SDHα. (In general: A western blot detects proteins with antibodies after separation by electrophoresis.)

By UniProt entry, the sequences of proteins in these tests, tags left out.
UniProt Q00266: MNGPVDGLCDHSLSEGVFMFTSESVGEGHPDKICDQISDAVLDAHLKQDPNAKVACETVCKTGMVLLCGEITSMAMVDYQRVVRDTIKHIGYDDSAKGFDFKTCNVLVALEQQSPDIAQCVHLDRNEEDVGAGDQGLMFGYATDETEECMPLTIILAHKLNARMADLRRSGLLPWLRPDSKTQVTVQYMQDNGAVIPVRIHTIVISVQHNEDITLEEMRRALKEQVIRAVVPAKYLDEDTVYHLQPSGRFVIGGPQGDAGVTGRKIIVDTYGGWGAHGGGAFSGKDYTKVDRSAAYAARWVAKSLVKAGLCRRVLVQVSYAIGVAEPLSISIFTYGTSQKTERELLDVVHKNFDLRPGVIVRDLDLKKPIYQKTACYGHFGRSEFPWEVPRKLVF

Results are given in words; binding and its absence hold for the method and conditions named. In cells and extracts the contact can be indirect. Some binding calls cover weakened binding; strength is not graded here.

B1: MCAD, endogenous human (protein, UniProt P11310 26-421)
chain: KANRQREPGLGFSFEFTEQQKEFQATARKFAREEIIPVAAEYDKTGEYPVPLIRRAWELGLMNTHIPENCGGLGLGTFDACLISEELAYGCTGVQTAIEGNSLGQMPIIIAGNDQQKKKYLGRMTEEPLMCAYCVTEPGAGSDVAGIKTKAEKKGDEYIINGQKMWITNGGKANWYFLLARSDPDPKAPANKAFTGFIVEADTPGIQIGRKELNMGQRCSDTRGIVFEDVKVPKENVLIGDGAGFKVAMGAFDKTRPVVAAGAVGLAQRALDEATKYALERKTFGKLLVEHQAISFMLAEMAMKVELARMSYQRAAWEVDSGRRNTYYASIAKAFAGDIANQLATDAVQILGGNGFNTEYPVEKLMRDAKIYQIYEGTSQIQRLIVAREHIDKYKN
For the molecule B1, the binding entry is listed as “binds”.

(Values after publication PMC8799735.)
